PubChem BioAssay AID652243 | Drosophila RNAi Screening Center – 2013

Aim: 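Knock-downs that decrease or increase androgen receptor reporter signal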 (primary screen)
System: Drosophila S2R+ cells
Reagent: long dsRNA against Drosophila genes
Duration: 72 h (48 h, then 24 h hormone)
Conditions: synthetic androgen R1881 at 10 nM for 24 h
Read-out: 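Firefly light from an androgen-responsive reporter and Renilla control light per well, raw and unnormalised, for each of two replicates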
Reading the numbers: firefly reporter light: higher = more light from androgen-responsive reporter; Renilla control light: higher = more constitutive control signal (cell number, transfection)
Rule for the call: 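Hit when the log firefly-to-Renilla ratio dropped or increased by a fixed fold versus the mean of GFP or LacZ controls across duplicate plates; lowering cut given as 1.5 and as 3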
Calls: active = hit: reporter lowered or raised; inactive = no hit
In all, the deposit lists about 24,000 reagents; this is an unselected part of those that have a named target and a result. In the full data, 246 (1%) are marked active. 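Plates not normalised; calls are printed but the firefly/Renilla ratio behind them is not deposited; fold cut for lowering reported inconsistently.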 Raw values vary from plate to plate and are shown uncorrected. A plus sign joins genes that one reagent is predicted to hit. Reagent sequences are not shown. Not given: the amount of reagent.

target gene | dsRNA | firefly reporter light, replicate 1 | firefly reporter light, replicate 2 | Renilla control light, replicate 1 | Renilla control light, replicate 2 | activity call
bb8 | DRSC15578 | 2.36e5 | 2.51e5 | 2.12e6 | 2.81e6 | inactive
CG14676 | DRSC12262 | 39482 | 47886 | 1.17e6 | 1.18e6 | inactive
CG17839 | DRSC10290 | 1.58e5 | 1.56e5 | 1.74e6 | 1.49e6 | inactive
CG17839 | DRSC10291 | 1.01e5 | 1.27e5 | 1.98e6 | 1.59e6 | inactive
CG42326 | DRSC06483 | 3.64e5 | 4.21e5 | 2.73e6 | 2.48e6 | inactive
CG42326 | DRSC06484 | 2.28e5 | 2.08e5 | 1.79e6 | 1.76e6 | inactive
CG42326 | DRSC24293 | 7.73e5 | 8.51e5 | 7.84e5 | 7.07e5 | inactive
CG11854 | DRSC14409 | 2.51e5 | 2.54e5 | 2.37e6 | 1.97e6 | inactive
CG31827 + CG18478 | DRSC01958 | 1.20e5 | 1.42e5 | 1.60e6 | 1.91e6 | inactive
CG11370 | DRSC11653 | 3.09e5 | 3.11e5 | 2.59e6 | 2.46e6 | inactive
CG11370 | DRSC28361 | 4.69e5 | 6.41e5 | 7.78e5 | 1.13e6 | inactive
mRpL47 | DRSC16827 | 66123 | 76844 | 1.17e6 | 1.88e6 | inactive
CG32246 | DRSC08115 | 2.78e5 | 2.24e5 | 4.54e5 | 3.80e5 | inactive
CG32246 | DRSC24361 | 1.01e6 | 8.35e5 | 7.46e5 | 7.26e5 | inactive
CG33500 | DRSC09115 | 2.84e5 | 1.54e5 | 1.34e5 | 1.36e5 | inactive
dom | DRSC04558 | 8.45e5 | 5.91e5 | 1.56e6 | 2.48e6 | inactive
dom | DRSC04559 | 1.60e5 | 1.29e5 | 1.43e6 | 1.04e6 | inactive
dom | DRSC29669 | 5.05e5 | 5.92e5 | 6.48e5 | 6.48e5 | inactive
ckd | DRSC08418 | 1.58e5 | 2.19e5 | 2.03e6 | 2.92e6 | inactive
Cyp4d8 | DRSC11131 | 1.23e6 | 9.77e5 | 1.03e6 | 1.21e6 | inactive
Cyp4d8 | DRSC29268 | 4.16e5 | 4.26e5 | 1.52e6 | 1.17e6 | inactive
Ugt35E1 | DRSC15193 | 1.03e5 | 1.05e5 | 1.49e6 | 1.71e6 | inactive
Ugt35E1 | DRSC27215 | 5.95e5 | 5.43e5 | 7.50e5 | 6.85e5 | inactive

Part of the list above, reformatted:
CG17839 [DRSC10290] → firefly reporter light, replicate 1: 1.58e5; firefly reporter light, replicate 2: 1.56e5; Renilla control light, replicate 1: 1.74e6; Renilla control light, replicate 2: 1.49e6; activity call: inactive
CG17839 [DRSC10291] → firefly reporter light, replicate 1: 1.01e5; firefly reporter light, replicate 2: 1.27e5; Renilla control light, replicate 1: 1.98e6; Renilla control light, replicate 2: 1.59e6; activity call: inactive
CG42326 [DRSC06483] → firefly reporter light, replicate 1: 3.64e5; firefly reporter light, replicate 2: 4.21e5; Renilla control light, replicate 1: 2.73e6; Renilla control light, replicate 2: 2.48e6; activity call: inactive
CG42326 [DRSC06484] → firefly reporter light, replicate 1: 2.28e5; firefly reporter light, replicate 2: 2.08e5; Renilla control light, replicate 1: 1.79e6; Renilla control light, replicate 2: 1.76e6; activity call: inactive
CG42326 [DRSC24293] → firefly reporter light, replicate 1: 7.73e5; firefly reporter light, replicate 2: 8.51e5; Renilla control light, replicate 1: 7.84e5; Renilla control light, replicate 2: 7.07e5; activity call: inactive
CG11854 [DRSC14409] → firefly reporter light, replicate 1: 2.51e5; firefly reporter light, replicate 2: 2.54e5; Renilla control light, replicate 1: 2.37e6; Renilla control light, replicate 2: 1.97e6; activity call: inactive
CG31827 + CG18478 [DRSC01958] → firefly reporter light, replicate 1: 1.20e5; firefly reporter light, replicate 2: 1.42e5; Renilla control light, replicate 1: 1.60e6; Renilla control light, replicate 2: 1.91e6; activity call: inactive
CG11370 [DRSC11653] → firefly reporter light, replicate 1: 3.09e5; firefly reporter light, replicate 2: 3.11e5; Renilla control light, replicate 1: 2.59e6; Renilla control light, replicate 2: 2.46e6; activity call: inactive
CG11370 [DRSC28361] → firefly reporter light, replicate 1: 4.69e5; firefly reporter light, replicate 2: 6.41e5; Renilla control light, replicate 1: 7.78e5; Renilla control light, replicate 2: 1.13e6; activity call: inactive

Further reagents:
target gene | dsRNA | firefly reporter light, replicate 1 | firefly reporter light, replicate 2 | Renilla control light, replicate 1 | Renilla control light, replicate 2 | activity call
Acp98AB | DRSC21837 | 6.51e5 | 7.24e5 | 1.26e6 | 1.15e6 | inactive
Polr3F | DRSC15785 | 3.66e5 | 4.21e5 | 3.64e6 | 3.37e6 | inactive
Gtpx | DRSC08221 | 1.34e6 | 5.30e5 | 1.70e6 | 7.75e5 | inactive
Gtpx | DRSC22117 | 7.78e5 | 6.96e5 | 1.99e6 | 1.87e6 | inactive
Paip1 | DRSC07302 | 1.60e5 | 1.01e5 | 5.40e5 | 5.09e5 | inactive
Paip1 | DRSC23561 | 7.03e5 | 1.11e6 | 8.60e5 | 1.12e6 | inactive
CG14115 | DRSC10118 | 2.71e5 | 2.30e5 | 2.25e6 | 2.19e6 | inactive
CG18748 | DRSC15385 | 64061 | 1.66e5 | 1.61e6 | 2.30e6 | inactive
maf-S | DRSC07348 | 32624 | 67007 | 5.21e5 | 6.52e5 | inactive
sax | DRSC07675 | 1.24e6 | 4.83e5 | 1.71e6 | 1.15e6 | inactive
sax | DRSC26844 | 4.03e5 | 3.88e5 | 7.66e5 | 7.13e5 | inactive
sax | DRSC37004 | – | – | – | – | inactive
spn-F | DRSC14475 | 62130 | 42074 | 5.09e5 | 3.77e5 | inactive
spn-F | DRSC29328 | 4.98e5 | 5.56e5 | 1.28e6 | 1.28e6 | inactive
mus201 + Chrac-14 | DRSC03568 | 2.05e5 | 1.38e5 | 1.72e6 | 1.41e6 | inactive
mus201 + Chrac-14 | DRSC03575 | 2.54e5 | 2.09e5 | 1.86e6 | 1.83e6 | inactive
CG6937 | DRSC16140 | 1.32e5 | 1.31e5 | 1.21e6 | 1.56e6 | inactive
CG6937 | DRSC23708 | 7.90e5 | 7.63e5 | 9.23e5 | 1.09e6 | inactive
CG5194 | DRSC10492 | 7.65e5 | 5.18e5 | 1.17e6 | 1.00e6 | inactive
CG31454 | DRSC14365 | 62007 | 72940 | 1.21e6 | 1.24e6 | inactive
CG31454 | DRSC22801 | 5.16e5 | 1.14e6 | 1.10e6 | 1.85e6 | inactive
CG31454 | DRSC24377 | 4.51e5 | 5.04e5 | 6.50e5 | 6.35e5 | inactive
CG43894 | DRSC10123 | 2.79e5 | 2.35e5 | 2.06e6 | 1.50e6 | inactive
CG43894 | DRSC25029 | 1.14e6 | 1.07e6 | 8.27e5 | 8.40e5 | inactive
CG43894 | DRSC38843 | 1.29e6 | 9.49e5 | 2.63e6 | 2.11e6 | inactive
Galk | DRSC10500 | 7.20e5 | 1.10e6 | 1.29e6 | 1.05e6 | inactive
Galk | DRSC26987 | 3.99e5 | 3.27e5 | 8.51e5 | 7.52e5 | inactive
Galk | DRSC39310 | – | – | – | – | inactive
CG8138 | DRSC16386 | 1.15e5 | 1.30e5 | 1.86e6 | 1.82e6 | inactive
metro | DRSC06341 | 8.05e5 | 1.02e6 | 1.59e6 | 1.06e6 | inactive
metro | DRSC06725 | 2.20e5 | 2.25e5 | 1.52e6 | 1.49e6 | inactive
metro | DRSC27336 | 2.50e5 | 2.81e5 | 4.19e5 | 4.55e5 | inactive
CG11398 | DRSC18625 | 1.07e5 | 74177 | 1.79e6 | 1.55e6 | inactive
Nox | DRSC06596 | 1.03e5 | 99974 | 1.65e6 | 1.65e6 | inactive
Nox | DRSC06857 | 42554 | 52629 | 7.10e5 | 7.10e5 | inactive
Nox | DRSC27816 | 2.63e5 | 1.78e5 | 6.22e5 | 7.45e5 | inactive
Nox | DRSC29856 | 3.93e5 | 3.06e5 | 1.74e6 | 1.72e6 | inactive
